Test results reported in the supplement of paper PMC10849652.
The list shows a part of the results.

By UniProt entry, the sequences of proteins in these tests, tags left out. Where a name states a change or a piece, a line headed by the entry shows the natural chain unless it says otherwise.
UniProt P60842, whole entry, looked up: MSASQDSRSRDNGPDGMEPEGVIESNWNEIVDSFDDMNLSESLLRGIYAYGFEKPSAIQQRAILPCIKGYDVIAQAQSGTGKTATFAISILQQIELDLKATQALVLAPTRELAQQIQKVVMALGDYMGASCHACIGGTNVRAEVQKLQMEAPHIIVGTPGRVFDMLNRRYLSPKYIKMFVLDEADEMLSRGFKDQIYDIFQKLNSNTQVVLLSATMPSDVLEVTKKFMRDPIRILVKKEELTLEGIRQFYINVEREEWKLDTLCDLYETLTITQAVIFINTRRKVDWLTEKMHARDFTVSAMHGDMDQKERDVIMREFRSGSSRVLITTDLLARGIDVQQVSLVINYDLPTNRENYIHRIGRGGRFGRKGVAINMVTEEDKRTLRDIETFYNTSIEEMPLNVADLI
UniProt Q92889: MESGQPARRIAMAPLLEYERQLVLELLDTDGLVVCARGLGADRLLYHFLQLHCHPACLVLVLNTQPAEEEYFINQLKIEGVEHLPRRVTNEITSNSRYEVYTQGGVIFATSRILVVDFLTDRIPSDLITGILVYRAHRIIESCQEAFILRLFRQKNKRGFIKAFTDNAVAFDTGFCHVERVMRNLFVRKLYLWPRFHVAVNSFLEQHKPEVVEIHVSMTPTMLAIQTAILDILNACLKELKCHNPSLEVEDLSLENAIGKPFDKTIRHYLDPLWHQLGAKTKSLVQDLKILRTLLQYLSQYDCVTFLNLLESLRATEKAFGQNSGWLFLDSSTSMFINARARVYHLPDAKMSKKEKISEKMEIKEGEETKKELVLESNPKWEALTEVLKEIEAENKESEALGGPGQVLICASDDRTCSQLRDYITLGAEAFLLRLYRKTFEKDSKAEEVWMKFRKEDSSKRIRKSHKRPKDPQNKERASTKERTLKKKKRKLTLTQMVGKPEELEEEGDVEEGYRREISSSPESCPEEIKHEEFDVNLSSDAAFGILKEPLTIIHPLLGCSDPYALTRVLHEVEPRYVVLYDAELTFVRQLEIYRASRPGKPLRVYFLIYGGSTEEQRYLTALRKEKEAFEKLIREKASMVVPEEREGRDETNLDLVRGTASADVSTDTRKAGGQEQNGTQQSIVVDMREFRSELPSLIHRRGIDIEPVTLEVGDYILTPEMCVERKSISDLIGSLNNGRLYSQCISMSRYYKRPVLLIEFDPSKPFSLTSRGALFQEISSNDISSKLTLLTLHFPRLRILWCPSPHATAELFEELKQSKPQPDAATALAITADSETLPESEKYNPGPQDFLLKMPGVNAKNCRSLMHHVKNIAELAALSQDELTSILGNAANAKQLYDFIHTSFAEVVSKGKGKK
UniProt Q9HC35: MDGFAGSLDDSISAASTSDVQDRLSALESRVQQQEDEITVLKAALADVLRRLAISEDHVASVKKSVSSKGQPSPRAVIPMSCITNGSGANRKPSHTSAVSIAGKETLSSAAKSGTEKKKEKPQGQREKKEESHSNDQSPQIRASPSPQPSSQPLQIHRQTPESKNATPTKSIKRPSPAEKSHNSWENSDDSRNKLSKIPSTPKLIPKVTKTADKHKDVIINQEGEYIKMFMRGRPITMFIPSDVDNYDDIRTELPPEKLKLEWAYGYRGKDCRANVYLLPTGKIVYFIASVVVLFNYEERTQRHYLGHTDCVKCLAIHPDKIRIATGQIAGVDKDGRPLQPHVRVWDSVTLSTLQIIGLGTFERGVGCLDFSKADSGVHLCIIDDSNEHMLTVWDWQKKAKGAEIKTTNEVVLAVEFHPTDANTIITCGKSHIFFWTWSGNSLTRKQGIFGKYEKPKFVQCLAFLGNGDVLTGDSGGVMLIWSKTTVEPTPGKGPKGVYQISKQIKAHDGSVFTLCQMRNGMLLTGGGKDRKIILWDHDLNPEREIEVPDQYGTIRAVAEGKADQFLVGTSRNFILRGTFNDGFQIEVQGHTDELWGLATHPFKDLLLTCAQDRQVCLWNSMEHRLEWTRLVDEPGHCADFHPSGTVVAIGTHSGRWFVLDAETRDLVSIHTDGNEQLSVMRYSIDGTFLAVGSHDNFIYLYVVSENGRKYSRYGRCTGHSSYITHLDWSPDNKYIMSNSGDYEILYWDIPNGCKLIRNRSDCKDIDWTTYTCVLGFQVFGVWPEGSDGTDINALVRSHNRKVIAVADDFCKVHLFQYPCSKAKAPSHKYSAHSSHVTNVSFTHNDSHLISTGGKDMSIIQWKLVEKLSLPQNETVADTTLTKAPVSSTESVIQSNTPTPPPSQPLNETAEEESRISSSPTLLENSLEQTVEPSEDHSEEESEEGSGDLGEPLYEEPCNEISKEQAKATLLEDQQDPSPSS
UniProt O43491, whole entry, looked up: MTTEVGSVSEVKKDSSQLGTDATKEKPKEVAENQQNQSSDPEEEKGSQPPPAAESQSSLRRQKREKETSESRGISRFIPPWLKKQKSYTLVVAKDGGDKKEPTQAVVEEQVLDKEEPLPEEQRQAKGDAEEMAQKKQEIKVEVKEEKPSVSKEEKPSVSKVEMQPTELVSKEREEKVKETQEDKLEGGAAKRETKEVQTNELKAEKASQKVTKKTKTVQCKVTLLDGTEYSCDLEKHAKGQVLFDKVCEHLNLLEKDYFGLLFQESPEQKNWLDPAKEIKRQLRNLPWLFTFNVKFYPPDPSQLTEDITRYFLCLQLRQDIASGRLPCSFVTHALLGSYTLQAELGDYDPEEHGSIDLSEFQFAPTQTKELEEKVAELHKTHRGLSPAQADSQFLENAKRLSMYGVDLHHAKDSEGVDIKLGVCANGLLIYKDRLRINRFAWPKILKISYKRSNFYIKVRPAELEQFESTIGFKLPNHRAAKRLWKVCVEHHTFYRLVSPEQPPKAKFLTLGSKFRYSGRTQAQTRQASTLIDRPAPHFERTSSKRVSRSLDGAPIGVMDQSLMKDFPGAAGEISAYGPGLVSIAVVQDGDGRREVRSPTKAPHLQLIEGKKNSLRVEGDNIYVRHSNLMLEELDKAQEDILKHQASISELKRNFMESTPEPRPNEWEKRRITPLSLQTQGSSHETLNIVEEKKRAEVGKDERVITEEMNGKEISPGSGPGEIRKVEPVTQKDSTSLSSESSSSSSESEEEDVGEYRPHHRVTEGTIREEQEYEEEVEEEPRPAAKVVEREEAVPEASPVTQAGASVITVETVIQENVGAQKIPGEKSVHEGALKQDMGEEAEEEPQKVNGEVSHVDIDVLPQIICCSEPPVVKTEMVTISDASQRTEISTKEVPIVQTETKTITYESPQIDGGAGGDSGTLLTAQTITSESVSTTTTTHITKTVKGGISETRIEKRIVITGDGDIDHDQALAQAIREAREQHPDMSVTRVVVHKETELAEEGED
UniProt Q9BQI3, whole entry, looked up: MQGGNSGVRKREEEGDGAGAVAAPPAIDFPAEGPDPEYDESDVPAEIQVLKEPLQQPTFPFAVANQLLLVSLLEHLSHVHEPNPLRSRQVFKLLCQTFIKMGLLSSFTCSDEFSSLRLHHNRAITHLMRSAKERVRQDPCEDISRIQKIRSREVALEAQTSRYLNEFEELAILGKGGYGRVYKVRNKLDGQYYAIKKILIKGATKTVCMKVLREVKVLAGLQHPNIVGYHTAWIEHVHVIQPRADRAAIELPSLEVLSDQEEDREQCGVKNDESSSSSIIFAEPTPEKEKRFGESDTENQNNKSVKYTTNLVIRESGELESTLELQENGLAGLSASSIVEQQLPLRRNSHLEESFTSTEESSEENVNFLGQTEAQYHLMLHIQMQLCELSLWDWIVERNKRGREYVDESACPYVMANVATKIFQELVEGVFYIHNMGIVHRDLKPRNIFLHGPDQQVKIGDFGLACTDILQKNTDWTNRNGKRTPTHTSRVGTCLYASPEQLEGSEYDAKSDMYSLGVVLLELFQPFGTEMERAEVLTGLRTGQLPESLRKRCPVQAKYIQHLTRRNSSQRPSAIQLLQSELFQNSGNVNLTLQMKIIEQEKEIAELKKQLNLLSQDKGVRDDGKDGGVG
UniProt O75821, whole entry, looked up: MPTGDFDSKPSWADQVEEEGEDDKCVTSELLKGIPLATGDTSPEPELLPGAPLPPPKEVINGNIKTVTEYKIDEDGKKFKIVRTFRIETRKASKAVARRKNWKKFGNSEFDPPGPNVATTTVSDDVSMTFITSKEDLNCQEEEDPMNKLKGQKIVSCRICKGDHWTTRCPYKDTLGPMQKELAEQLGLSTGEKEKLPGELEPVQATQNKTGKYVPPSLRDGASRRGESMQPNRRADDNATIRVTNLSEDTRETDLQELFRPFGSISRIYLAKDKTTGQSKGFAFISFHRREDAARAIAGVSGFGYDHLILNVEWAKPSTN
UniProt P07992: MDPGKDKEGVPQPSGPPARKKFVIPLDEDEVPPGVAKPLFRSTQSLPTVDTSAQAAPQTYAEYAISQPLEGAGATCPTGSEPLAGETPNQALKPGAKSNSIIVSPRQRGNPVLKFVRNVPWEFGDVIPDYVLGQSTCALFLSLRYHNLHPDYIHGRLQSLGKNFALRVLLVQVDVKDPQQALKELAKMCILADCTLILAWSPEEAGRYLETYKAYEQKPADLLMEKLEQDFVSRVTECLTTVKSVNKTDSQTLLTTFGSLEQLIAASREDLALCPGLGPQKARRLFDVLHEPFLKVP
UniProt Q9UHY7: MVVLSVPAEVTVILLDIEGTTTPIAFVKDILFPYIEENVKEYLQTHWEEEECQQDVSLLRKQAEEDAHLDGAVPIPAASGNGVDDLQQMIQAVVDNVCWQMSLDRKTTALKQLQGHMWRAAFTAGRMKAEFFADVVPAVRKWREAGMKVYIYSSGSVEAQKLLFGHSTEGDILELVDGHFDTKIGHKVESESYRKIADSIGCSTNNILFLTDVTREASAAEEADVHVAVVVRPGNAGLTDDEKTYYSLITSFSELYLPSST
UniProt P09104, whole entry, looked up: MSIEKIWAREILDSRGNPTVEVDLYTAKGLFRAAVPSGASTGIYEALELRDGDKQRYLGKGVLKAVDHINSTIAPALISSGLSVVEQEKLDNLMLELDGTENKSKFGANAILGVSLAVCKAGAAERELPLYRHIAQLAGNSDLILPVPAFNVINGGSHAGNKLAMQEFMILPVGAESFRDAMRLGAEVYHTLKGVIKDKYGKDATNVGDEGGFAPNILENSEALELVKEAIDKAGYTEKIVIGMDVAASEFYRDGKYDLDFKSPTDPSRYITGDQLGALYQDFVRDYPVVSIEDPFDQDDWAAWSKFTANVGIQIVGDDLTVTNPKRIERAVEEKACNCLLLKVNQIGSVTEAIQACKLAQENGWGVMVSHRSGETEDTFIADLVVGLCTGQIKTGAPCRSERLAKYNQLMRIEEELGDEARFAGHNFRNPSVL
UniProt Q15723: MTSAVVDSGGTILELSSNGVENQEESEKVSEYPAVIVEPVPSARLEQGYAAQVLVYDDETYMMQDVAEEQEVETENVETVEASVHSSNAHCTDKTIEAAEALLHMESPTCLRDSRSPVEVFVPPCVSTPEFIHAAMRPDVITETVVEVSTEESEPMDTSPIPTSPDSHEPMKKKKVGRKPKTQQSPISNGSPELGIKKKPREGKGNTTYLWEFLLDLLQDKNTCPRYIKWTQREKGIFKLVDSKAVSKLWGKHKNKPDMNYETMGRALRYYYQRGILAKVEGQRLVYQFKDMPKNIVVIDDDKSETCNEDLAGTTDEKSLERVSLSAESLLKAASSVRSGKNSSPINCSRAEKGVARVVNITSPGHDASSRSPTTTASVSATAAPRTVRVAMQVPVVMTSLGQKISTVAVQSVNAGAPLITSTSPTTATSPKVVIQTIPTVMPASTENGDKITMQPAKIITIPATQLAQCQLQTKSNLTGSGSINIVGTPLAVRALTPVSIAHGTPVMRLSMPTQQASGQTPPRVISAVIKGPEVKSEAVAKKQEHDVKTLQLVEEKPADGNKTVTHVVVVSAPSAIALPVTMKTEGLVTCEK
UniProt Q9H6S3: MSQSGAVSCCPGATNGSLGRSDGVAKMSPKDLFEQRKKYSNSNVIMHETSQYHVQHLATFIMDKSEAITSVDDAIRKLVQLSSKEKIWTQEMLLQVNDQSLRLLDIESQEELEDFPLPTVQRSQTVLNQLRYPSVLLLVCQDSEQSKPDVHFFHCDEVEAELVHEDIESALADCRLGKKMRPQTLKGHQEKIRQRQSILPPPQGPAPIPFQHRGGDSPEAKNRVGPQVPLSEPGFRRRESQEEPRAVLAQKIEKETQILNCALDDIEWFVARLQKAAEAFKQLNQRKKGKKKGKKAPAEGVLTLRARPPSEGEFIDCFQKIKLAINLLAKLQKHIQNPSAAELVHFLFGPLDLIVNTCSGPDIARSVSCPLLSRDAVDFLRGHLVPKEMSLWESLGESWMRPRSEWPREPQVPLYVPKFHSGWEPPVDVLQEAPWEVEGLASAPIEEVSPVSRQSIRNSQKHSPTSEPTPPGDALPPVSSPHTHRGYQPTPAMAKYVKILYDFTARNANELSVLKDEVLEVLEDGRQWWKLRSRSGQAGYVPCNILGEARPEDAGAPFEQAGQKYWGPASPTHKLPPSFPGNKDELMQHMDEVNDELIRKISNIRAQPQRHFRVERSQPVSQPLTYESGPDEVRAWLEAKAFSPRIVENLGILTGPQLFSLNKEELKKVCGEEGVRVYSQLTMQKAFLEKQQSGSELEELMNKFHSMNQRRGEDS

Assays:
Assay in all cases: log2 fold change, soluble protein after heating vs DMSO (PISA); higher = thermal stabilisation; K562 lysate, 10 uM; active = over 0.2 and 3.5 SD of the protein, either way, in both replicates (recomputed)
[1] = compound: C#Cc1cccc(Nc2ncnc3cc(OCCOC)c(OCCOC)cc23)c1 [erlotinib]
In short: (§1)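 Quantification was by TMTpro 16plex LC-MS/MS with equalised channel sums, applied to the supernatant after 21,000xg for 90 min. Samples were crude K562 extract at 1 mg/mL protein in PBS pH 7.4 with 1 mM MgCl2, treated with 10 μM compound for 30 min, heated for 3 min across 48°C-58°C, pooled and brought to 0.5% NP-40 at 4°C. Values are log-two fold changes in thermal stability relative to solvent controls, from duplicates.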

[2] = compound: C/C(=N\NC(=O)C1=CC(=CC=C1)S(=O)(=O)N2CCOCC2)/C3=C(C=CC(=C3)Cl)O
In short: as §1

[3] = compound: C1=CC(=CC=C1C2=NC3=C(N2)C=C(C=C3)C(=O)N)OC4=CC=C(C=C4)Cl
In short: as §1

[4] = compound: C1=CC2=C(C=CC(=C2)/C=C\3/C(=O)NC(=NCC4=CC=CS4)S3)N=C1
In short: as §1

[5] = compound: C1=CC2=NC=CN=C2C=C1/C=C/3\C(=O)NC(=O)S3
In short: as §1

[6] = compound: C1=CC=C(C=C1)C2=NC(=C(N2)C3=CC=NC=C3)C4=CC(=C(C=C4)Cl)O
In short: as §1

[7] = compound: C1=CC=C2C(=C1)C3=NNC4=CC=CC(=C43)C2=O
In short: as §1

[8] = compound: C1CCN(C1)C(=O)NC2=CC=CC(=C2)NC3=NC=C(C(=N3)NCCC4=CN=CN4)Br
In short: as §1

[9] = compound: C1CN(CCC1(CC2=CC=C(C=C2)Cl)N)C3=NC=NC4=C3C=CN4
In short: as §1

[10] = compound: C1COCCN1CCN2C3=CC=CC=C3N=C2NC(=O)C4=CC(=CC=C4)[N+](=O)[O-] [IRAK-1-4 Inhibitor I]
In short: as §1

[11] = compound: C=CC(=O)N1CCC[C@@H](n2nc(-c3ccc(Oc4ccccc4)cc3)c3c(N)ncnc32)C1 [ibrutinib]
In short: as §1

[12] = compound: CC(=O)c1cnc2ccc(-c3cc(Cl)c(O)c(Cl)c3)nc2c1N[C@H]1CC[C@H](CN(C)C)CC1
In short: as §1

[13] = compound: CC(C)(C)Cn1c(N)nc2ccc(-c3[nH]c(C(C)(C)C)nc3-c3ccc(F)cc3)nc21 [ralimetinib]
In short: as §1

[14] = compound: CC(C)(O)CC(=O)NCCn1ccc2ncnc(Nc3ccc(Oc4cccc(C(F)(F)F)c4)c(Cl)c3)c21
In short: as §1

[15] = compound: CC(C)C1=C2N=C(C=C(N2N=C1)NCC3=CC=CC=C3)NCCCCCCN
In short: as §1

[16] = compound: CC1=C(C(CC(=O)N1)C2=CC=C(C=C2)C(F)(F)F)C(=O)NC3=C(C=C4C(=C3)C=NN4)F
In short: as §1

[17] = compound: CC1=C(C2=C(C=C1)C(=O)C3=CC=CC=C3N2CCCN)C
In short: as §1

[18] = compound: CC1=C(C=C(C=C1)NC(=O)C2=CC(=CC=C2)C(C)(C)C#N)NC3=CC4=C(C=C3)N=CN(C4=O)C
In short: as §1

[19] = compound: CC1=C(C=C(C=C1)NC(=O)C2=CC(=CC=C2)N(C)C)NC(=O)C3=CC=C(C=C3)O
In short: as §1

[20] = compound: CC1=CC=C(C=C1)SC2=C3C=C(SC3=CN=C2)C(=O)N
In short: as §1

Measured: log2 fold change

EIF4A1 (UniProt P60842)
inactive: [1] 0.024 | [2] 0.027 | [3] 0.008 | [4] -0.003 | [5] -0.005 | [6] -0.003 | [7] -0.03 | [8] 0.011 | [9] 0.042 | [10] 0.009 | [11] 0.021 | [12] -0.001 | [13] 0 | [14] -0.024 | [15] 0.008 | [16] -0.034 | [17] -0.018 | [18] 0.003 | [19] 0.007 | [20] 0.009

EIF5A2 (UniProt Q9GZV4)
inactive: [1] 0.046 | [2] -0.006 | [3] 0.067 | [4] 0.01 | [5] -0.02 | [6] 0.042 | [7] -0.019 | [8] 0.02 | [9] 0.016 | [10] 0.038 | [11] 0.037 | [12] 0.032 | [13] 0.029 | [14] -0.037 | [15] 0.005 | [16] -0.079 | [17] 0.033 | [18] 0.011 | [19] -0.048 | [20] 0.012

ERCC4 (UniProt Q92889)
inactive: [1] -0.008 | [2] -0.04 | [3] 0.033 | [4] 0.015 | [5] -0.021 | [6] -0.003 | [7] -0.096 | [8] -0.006 | [9] 0.051 | [10] 0.029 | [11] -0.02 | [12] 0.027 | [13] -0.028 | [14] 0.006 | [15] 0.059 | [16] -0.021 | [17] -0.029 | [18] 0.013 | [19] 0.025 | [20] -0.054

EML4 (UniProt Q9HC35)
inactive: [1] -0.001 | [2] 0.033 | [3] -0.017 | [4] -0.008 | [5] -0.016 | [6] -0.01 | [7] -0.012 | [8] 0.009 | [9] 0.012 | [10] 0.006 | [11] 0.007 | [12] -0.007 | [13] 0.037 | [14] -0.001 | [15] 0.001 | [16] -0.024 | [17] 0.015 | [18] 0.024 | [19] 0.001 | [20] 0.002

EPB41L2 (UniProt O43491)
inactive: [1] -0.025 | [2] 0.004 | [3] 0.009 | [4] -0.026 | [5] -0.013 | [6] 0.001 | [7] 0.001 | [8] -0.004 | [9] 0.01 | [10] 0.021 | [11] 0.031 | [12] -0.006 | [13] 0.003 | [14] -0.021 | [15] -0.01 | [16] -0.004 | [17] -0.011 | [18] -0.027 | [19] 0.005 | [20] 0.003

EMC8 (UniProt O43402)
inactive: [1] -0.007 | [2] 0.04 | [3] 0.007 | [4] 0.013 | [5] 0.051 | [6] -0.009 | [7] -0.046 | [8] -0.006 | [9] 0.01 | [10] -0.03 | [11] -0.02 | [12] 0 | [13] -0.002 | [14] 0.006 | [15] 0.004 | [16] 0.032 | [17] 0.021 | [18] 0.011 | [19] 0.021 | [20] -0.001

EIF2AK1 (UniProt Q9BQI3)
inactive: [1] -0.016 | [2] 0.087 | [3] 0.017 | [4] -0.02 | [5] 0.029 | [6] -0.027 | [7] -0.016 | [8] -0.02 | [9] -0.006 | [10] -0.01 | [11] 0.007 | [12] -0.151 | [13] 0.028 | [14] 0.034 | [15] -0.017 | [16] -0.001 | [17] -0.007 | [18] 0.044 | [19] 0.018 | [20] -0.072

ENDOG (UniProt Q14249)
inactive: [1] 0.006 | [2] 0.075 | [3] 0.006 | [4] -0.014 | [5] 0 | [6] -0.041 | [7] -0.088 | [8] -0.008 | [9] 0.037 | [10] -0.001 | [11] 0.035 | [12] 0.014 | [13] 0.079 | [14] -0.051 | [15] -0.016 | [16] -0.019 | [17] 0.005 | [18] -0.025 | [19] 0.021 | [20] 0.008

Quoted from above (2 entries):
EMC8 (UniProt O43402)
inactive: [1] -0.007 | [2] 0.04 | [3] 0.007 | [4] 0.013 | [5] 0.051 | [6] -0.009 | [7] -0.046 | [8] -0.006 | [9] 0.01 | [10] -0.03 | [11] -0.02 | [12] 0 | [13] -0.002 | [14] 0.006 | [15] 0.004 | [16] 0.032 | [17] 0.021 | [18] 0.011 | [19] 0.021 | [20] -0.001

EIF2AK1 (UniProt Q9BQI3)
inactive: [1] -0.016 | [2] 0.087 | [3] 0.017 | [4] -0.02 | [5] 0.029 | [6] -0.027 | [7] -0.016 | [8] -0.02 | [9] -0.006 | [10] -0.01 | [11] 0.007 | [12] -0.151 | [13] 0.028 | [14] 0.034 | [15] -0.017 | [16] -0.001 | [17] -0.007 | [18] 0.044 | [19] 0.018 | [20] -0.072

(listing goes on)

EIF3G (UniProt O75821)
inactive: [1] 0.029 | [2] -0.059 | [3] 0.027 | [4] 0.001 | [5] -0.011 | [6] -0.001 | [7] -0.018 | [8] 0.012 | [9] 0.009 | [10] -0.002 | [11] -0.054 | [12] 0.003 | [13] 0.009 | [14] 0.002 | [15] 0.01 | [16] -0.023 | [17] -0.001 | [18] 0.007 | [19] 0.02 | [20] -0.018

EP400 isoform 5 (UniProt Q96L91)
inactive: [1] 0.045 | [2] 0.01 | [3] -0.007 | [4] -0.023 | [5] -0.042 | [6] -0.003 | [7] -0.074 | [8] -0.027 | [9] -0.023 | [10] -0.005 | [11] -0.061 | [12] -0.018 | [13] 0.02 | [14] -0.033 | [15] -0.027 | [16] 0.047 | [17] -0.014 | [18] 0.016 | [19] 0.035 | [20] 0.041

ERCC1 (UniProt P07992)
inactive: [1] 0.043 | [2] -0.155 | [3] -0.02 | [4] -0.087 | [5] 0.009 | [6] -0.031 | [7] -0.126 | [8] 0.06 | [9] 0.01 | [10] 0.013 | [11] -0.012 | [12] 0.039 | [13] 0.013 | [14] -0.007 | [15] 0.006 | [16] 0.008 | [17] 0.012 | [18] -0.04 | [19] 0.001 | [20] 0.002

ENOPH1 (UniProt Q9UHY7)
inactive: [1] 0.009 | [2] -0.086 | [3] -0.016 | [4] 0.029 | [5] 0.006 | [6] 0.062 | [7] 0.044 | [8] -0.005 | [9] 0.048 | [10] 0.009 | [11] -0.021 | [12] 0.04 | [13] -0.008 | [14] -0.058 | [15] 0.019 | [16] -0.016 | [17] 0.046 | [18] -0.008 | [19] -0.02 | [20] 0.035

ENO2 (UniProt P09104)
inactive: [1] 0.013 | [2] 0.013 | [3] 0.03 | [4] -0.037 | [5] 0.056 | [6] -0.091 | [7] 0.024 | [8] 0.005 | [9] -0.02 | [10] -0.036 | [11] -0.008 | [12] -0.014 | [13] 0.031 | [14] -0.051 | [15] -0.007 | [16] -0.013 | [17] -0.029 | [18] 0.035 | [19] 0.032 | [20] 0.011

ELF2 (UniProt Q15723)
inactive: [1] 0.023 | [2] -0.136 | [3] 0.059 | [4] -0.068 | [5] 0.07 | [6] -0.036 | [7] -0.056 | [8] 0.009 | [9] -0.022 | [10] -0.01 | [11] 0.07 | [12] 0.116 | [13] 0.013 | [14] -0.038 | [15] 0.006 | [16] -0.017 | [17] -0.066 | [18] 0.035 | [19] 0.022 | [20] -0.028

ERCC6 (UniProt Q03468)
inactive: [1] -0.073 | [2] 0.21 | [3] -0.023 | [4] -0.01 | [5] -0.062 | [6] -0.014 | [7] 0.057 | [8] -0.131 | [9] -0.119 | [10] 0.03 | [11] 0.05 | [12] 0.004 | [13] -0.017 | [14] -0.02 | [15] 0.046 | [16] -0.005 | [17] 0.217 | [19] -0.009 | [20] -0.004

EPS8L2 (UniProt Q9H6S3)
inactive: [1] 0.082 | [3] 0.009 | [5] 0.037 | [6] 0.133 | [8] -0.108 | [9] 0.055 | [10] -0.086 | [11] -0.041 | [12] -0.026 | [13] -0.028 | [14] -0.021 | [15] 0.002 | [16] 0.031 | [17] -0.002 | [18] -0.054 | [19] -0.084 | [20] 0.015
